From the supplement of paper PMC6411743
± gives the standard deviation of the averaged measurements. The list shows a part of the results.

Target: T1, PC (UniProt P11498)
T1 sequence (whole entry): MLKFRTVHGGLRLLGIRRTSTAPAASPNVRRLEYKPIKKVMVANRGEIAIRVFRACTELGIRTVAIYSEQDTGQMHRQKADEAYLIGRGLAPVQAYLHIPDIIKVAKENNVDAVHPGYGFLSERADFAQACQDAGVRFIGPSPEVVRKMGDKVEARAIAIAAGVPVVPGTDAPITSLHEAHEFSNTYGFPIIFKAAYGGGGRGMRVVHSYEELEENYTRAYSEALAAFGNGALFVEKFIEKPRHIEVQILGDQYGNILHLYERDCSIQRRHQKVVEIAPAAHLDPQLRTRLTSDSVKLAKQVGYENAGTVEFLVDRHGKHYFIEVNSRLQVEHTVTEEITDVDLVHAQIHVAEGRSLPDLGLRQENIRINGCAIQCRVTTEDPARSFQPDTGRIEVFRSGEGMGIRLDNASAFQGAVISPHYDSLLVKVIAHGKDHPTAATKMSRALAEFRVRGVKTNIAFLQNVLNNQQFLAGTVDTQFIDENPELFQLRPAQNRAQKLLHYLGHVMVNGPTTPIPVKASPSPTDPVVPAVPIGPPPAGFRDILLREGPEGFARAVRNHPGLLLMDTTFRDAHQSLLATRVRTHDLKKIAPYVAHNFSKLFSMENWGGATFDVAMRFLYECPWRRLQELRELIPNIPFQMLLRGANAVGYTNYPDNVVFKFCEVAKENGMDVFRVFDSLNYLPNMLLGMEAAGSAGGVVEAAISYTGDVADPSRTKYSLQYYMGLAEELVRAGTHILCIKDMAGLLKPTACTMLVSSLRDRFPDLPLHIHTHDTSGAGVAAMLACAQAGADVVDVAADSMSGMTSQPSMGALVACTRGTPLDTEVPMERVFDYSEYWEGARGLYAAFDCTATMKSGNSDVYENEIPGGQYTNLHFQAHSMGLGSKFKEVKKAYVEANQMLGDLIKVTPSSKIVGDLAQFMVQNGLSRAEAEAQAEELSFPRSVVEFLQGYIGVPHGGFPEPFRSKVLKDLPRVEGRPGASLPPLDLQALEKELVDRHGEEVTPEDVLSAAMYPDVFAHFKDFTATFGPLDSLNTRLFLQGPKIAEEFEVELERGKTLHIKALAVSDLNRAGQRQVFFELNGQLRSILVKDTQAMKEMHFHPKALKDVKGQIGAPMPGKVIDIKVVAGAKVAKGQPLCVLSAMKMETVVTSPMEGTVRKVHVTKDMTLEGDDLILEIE
Assay: NP40-soluble protein abundance relative to vehicle (solubility fold change) (ratio); higher = more soluble protein in presence of GTP
Procedure: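 Solubility proteome profiling in Jurkat crude lysate. Lysate was treated with Mg-GTP (0.1-10 mM) for 10 min at room temperature and 3 min at 37 °C, then solubilised with 0.8% NP40 and benzonase, followed by ultracentrifugation. Proteins were quantified by TMT10 LC-MS/MS; the value is the NP40-soluble abundance relative to the NP40-processed vehicle, from 3 independent experiments.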

Question: `Nc1nc2c(ncn2[C@@H]2O[C@H](COP(=O)(O)OP(=O)(O)OP(=O)(O)O)[C@@H](O)[C@H]2O)c(=O)[nH]1` [guanosine triphosphate] was tested. Which NP40-soluble protein abundance (concentration: 0.1mM) did it give?
Answer: Its NP40-soluble protein abundance is 1.06 ± 0.055.

Question: What about the NP40-soluble protein abundance (concentration: 0.5mM) of the same compound?
Answer: The NP40-soluble protein abundance was 1.05 ± 0.029.

Question: What about the NP40-soluble protein abundance (concentration: 1mM) of the same compound?
Answer: Its NP40-soluble protein abundance is 0.9929 ± 0.0084.

Question: What about the NP40-soluble protein abundance (concentration: 2mM) of the same compound?
Answer: The NP40-soluble protein abundance was 1 ± 0.048.

Question: And the NP40-soluble protein abundance (concentration: 4mM)?
Answer: Its NP40-soluble protein abundance is 1.01 ± 0.048.

Question: And the NP40-soluble protein abundance (concentration: 6mM)?
Answer: The NP40-soluble protein abundance was 0.992 ± 0.03.

Question: And the NP40-soluble protein abundance (concentration: 8mM)?
Answer: The NP40-soluble protein abundance was 0.978 ± 0.019.

Question: What about the NP40-soluble protein abundance (concentration: 10mM) of the same compound?
Answer: Its NP40-soluble protein abundance is 0.948 ± 0.05.
